# Primary screen of a compound library

Protein sequences, listed by entry. Tags and fused reporters are not part of them. Residues count along the entry.
UniProt A4I591, 1-473: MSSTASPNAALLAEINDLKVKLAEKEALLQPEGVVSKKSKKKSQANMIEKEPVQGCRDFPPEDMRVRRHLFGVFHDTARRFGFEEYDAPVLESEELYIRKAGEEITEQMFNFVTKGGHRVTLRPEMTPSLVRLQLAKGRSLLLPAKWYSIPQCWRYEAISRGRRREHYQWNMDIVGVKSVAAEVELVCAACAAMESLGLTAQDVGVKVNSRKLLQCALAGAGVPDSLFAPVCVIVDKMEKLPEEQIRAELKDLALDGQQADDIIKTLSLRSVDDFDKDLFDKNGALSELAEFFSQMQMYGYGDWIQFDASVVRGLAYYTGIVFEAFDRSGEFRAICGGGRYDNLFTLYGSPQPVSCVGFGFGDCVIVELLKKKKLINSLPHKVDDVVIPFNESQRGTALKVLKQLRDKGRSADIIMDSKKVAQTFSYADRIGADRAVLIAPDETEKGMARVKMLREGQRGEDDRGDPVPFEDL
UniProt P9WPC5, whole entry: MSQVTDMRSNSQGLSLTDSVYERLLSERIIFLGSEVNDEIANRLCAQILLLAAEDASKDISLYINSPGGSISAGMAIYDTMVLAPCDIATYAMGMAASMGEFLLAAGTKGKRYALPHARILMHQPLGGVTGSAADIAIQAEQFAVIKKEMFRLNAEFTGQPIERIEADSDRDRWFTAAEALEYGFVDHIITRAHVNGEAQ
UniProt P9WPC3, whole entry partner: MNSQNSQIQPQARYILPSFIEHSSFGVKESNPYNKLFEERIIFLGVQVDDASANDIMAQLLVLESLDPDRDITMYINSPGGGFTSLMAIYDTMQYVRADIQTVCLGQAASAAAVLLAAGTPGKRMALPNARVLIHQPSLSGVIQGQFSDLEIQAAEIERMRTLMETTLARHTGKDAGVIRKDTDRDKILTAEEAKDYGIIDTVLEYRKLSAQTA

LiHisRS: 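Histidine-tRNA ligase, Leishmania infantum (UniProt A4I591). Enzyme assay of histidyl-tRNA synthetase; the read-out is not stated. Tested at 30 µM. Higher reads as stronger inhibition (inferred: compounds with an IC50 in retests scored well above the rest). The assay is labelled LdHisRS but filed under L. infantum. Size under these conditions: about 69,000 compounds, about 410 of them at 50% or above in at least one test.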
Toxoplasma: 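Assay of Toxoplasma gondii numbers, read through their beta-galactosidase reporter with a colour substrate. Tested at 10 µM. The record gives no direction; the compounds picked for IC50 retests had high values, so higher reads as fewer parasites. About 67,000 compounds were tested under these conditions; 0.38% (about 260) showed 50% or more at least once.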
ClpP1P2: 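Protease assay of ClpP1P2, read by the AMC dye that it sets free. Target: ClpP1P2, Mycobacterium tuberculosis (UniProt P9WPC5 and UniProt P9WPC3). Concentration: 50 µM. Higher reads as stronger inhibition, judged from the few compounds that gave an IC50. Most other retested compounds had strongly negative values. Size under these conditions: about 69,000 compounds, about 10 of them at 50% or above in at least one test.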
T. brucei: 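Whole-parasite assay of Trypanosoma brucei over 72 hours; the read-out is not stated. Compounds at 30 µM. Higher reads as stronger inhibition (inferred: compounds with an IC50 in retests scored well above the rest). Values scatter widely below zero; nearly all retest evidence comes from the higher of the two concentrations used. Of about 64,000 compounds tested this way, about 940 (1.5%) reached 50% or more in at least one test.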
Leishmania in macrophages: 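Cell assay of Leishmania donovani living inside macrophages; the read-out is not stated. Concentration: 30 µM. The record gives no direction; compounds that gave an IC50 in retests scored well above the rest, so higher reads as stronger inhibition. Size under these conditions: about 69,000 compounds, about 1,000 of them at 50% or above in at least one test.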

The filed quantity is “Percent Effect” (%). How 0% and 100% were set is not recorded. Most values in the screen are low, and negative values occur. This is an unselected part of the compounds tested. Two or more numbers in one place are separate tests of the same structure; such repeats can differ widely. A dash means the value is not listed here; it may have been measured.

SMILES,LiHisRS,Toxoplasma,ClpP1P2,T. brucei,Leishmania in macrophages
Cc1ccc(C(=O)N2CCC3(CC2)CN(CCN(C)C)C(=O)O3)c(F)c1,31.25%,10%,-3.946%,-34.4%,2.891%
C[C@@H]1CN(C2CCOC2)C[C@]12CCN(Cc1cccnc1)C2=O.O=C(O)C(F)(F)F.O=C(O)C(F)(F)F (some centres unmarked),-,25.4%,-,-6.684%,28.4%
CCn1c(CNC(=O)c2ccc(N(C)C)nc2)nc2ccccc21,26.32%,6.483%,4.996%,-1.768%,17.56%
CSc1[nH]nc(NC(=O)c2cccs2)c1C#N,14.29%,2.964%,-8.235%,-30.38%,23.94%
N#Cc1ccccc1N1CCN(C(=O)NCC(=O)N2CCCC2)CC1,5.556%,-3.973%,-1.807%,-30.02%,-9.953%
O=C(NCCNc1cnccn1)NCC1CCS(=O)(=O)C1 (centres unmarked),6.349%,8.201%,-2.865%,-8.686%,12.04%
CC1(C)CC(N2Cc3nc(N4CCCC4)ncc3C2=O)CC(C)(C)N1,13.79%,4.781%,1.897%,1.293%,26.5%
CCCS(=O)(=O)N(C)C(=O)CCc1ccsc1,-3.226%,-3.502%,-14.63%,-23.05%,1.719%
O=C(O)C(F)(F)F.O=C(O)C(F)(F)F.[H][C@@]12CN(Cc3ccsc3)C[C@]1([H])OCCN2c1ncccn1,-,22.83%,-,-20.61%,32.64%
O=C(CN1CCCC1)N1CCCC(CNS(=O)(=O)Cc2ccccc2)C1 (centres unmarked),21.49%,0.6787%,-6.732%,4.024%,15.57%
O=C(O)C(F)(F)F.[H][C@@]12C[C@@H](C(=O)NC(C)C)C[C@@]1([H])N(Cc1ccsc1)CCO2,-,5.049%,-,21.26%,21.27%
O=C(O)C(F)(F)F.[H][C@@]12CN(Cc3cccc(C)c3)C[C@]1([H])OCCN2S(=O)(=O)N(C)C,-,4.598%,-,-19.97%,40.2% and 15.57%
CN1CCN(C(=O)c2[nH]nnc2Nc2ccccc2F)CC1,5%,-4.26%,-4.804%,-32.03%,-26.77%
CC(Nc1ccc(Br)cc1)c1nc(C2CC2)no1 (centres unmarked),9.375%,3.856%,7.541%,2.578%,23.25%
O=C(C1CCCCC1)N1CCN(Cc2nc(-c3ccco3)no2)CC1,-15.18%,-7.323%,-33.98%,-5.595%,30.88%
Cc1ccc(NC(=O)NC(C)c2nc[nH]n2)cc1Cl (centres unmarked),11.48%,13.62%,2.278%,-7.556%,9.212%
O=C(c1ccco1)N1CCC(n2nc(-c3cccs3)ccc2=O)CC1,13.54%,-14.59%,-3.131%,20.56%,15.47%
COCCCNC(=O)N1CCN(C(=O)c2nsc3ccccc23)CC1,10.53%,24.91%,-8.09%,1.563%,0.9212% and -2.397%
CCn1cnnc1C1CCCN(C(=O)COc2ccc(Cl)cc2)C1 (centres unmarked),11.32%,3.143%,-15.81%,-20.18%,17.84%
CC(C)c1nnc2n1CCN(CC(=O)N1CCc3sccc3C1)C2,21.43%,-21.14%,-24.52%,8.383%,12.91%
Cc1nc(CN2CCC3(CCCN(Cc4cccnc4)C3)C2=O)cs1 (centres unmarked),15.28%,-,1.666%,-,-
COc1ccc(OC)c(C(C)NS(=O)(=O)c2cn(C)nc2C)c1 (centres unmarked),1.149%,-14.06%,2.54%,-13.16%,26.58%
CC(C)CCN1CC2(CCCN(C(=O)NCc3cccs3)C2)CCC1=O (centres unmarked),5.479%,8.672%,-6.067%,-10.39%,-32.51%
CC(C)(C)C(=O)NS(=O)(=O)c1ccc(F)cc1C(F)(F)F,15.04%,2.352%,-15.65%,-11.14%,26.76%
CCc1csc(C2CCCN(C(=O)c3cnc[nH]3)C2)n1 (centres unmarked),13.91%,6.241%,1.808%,-7.239%,22.35%
CC(O)CN1CCC(CN(C)CCC(=O)NC2CCCC2)CC1 (centres unmarked),4.167%,6.181%,9.508%,-20.59%,-35.04%
CCc1noc(-c2cccc(C(=O)O)c2)n1,12.37%,2.521%,10.96%,-14%,0.4425%
Cc1cccc(C(C)(C)NC(=O)CS(=O)(=O)CC(C)C)c1,17.78%,-1.112%,-5.51%,-10.6%,5.173%
Cn1ncc2c1C(COCC1CC1)CN(C(=O)c1ccoc1)C2 (centres unmarked),5.66%,34.45%,-4.423%,-37.56%,-21.49%
CS(=O)(=O)NCC1CCCN(C(=O)Nc2ccccc2Cl)C1 (centres unmarked),25.71%,0.553%,-10.02%,28.09%,0.3005%
COCCCNc1c(-c2ccccc2)c(=O)c1=O,13.7%,-0.8203%,10.29%,9.158%,25.44%
CCOC(=O)CN1CCC2(CC1)CC(NC(=O)c1ccccn1)CO2 (centres unmarked),9.735%,-0.9029%,-9.189%,-60.57%,-11.08% and 7.421%

Repeated from the top, 4 entries:

Cc1ccc(C(=O)N2CCC3(CC2)CN(CCN(C)C)C(=O)O3)c(F)c1 gave LiHisRS: 31.25%; Toxoplasma: 10%; ClpP1P2: -3.946%; T. brucei: -34.4%; Leishmania in macrophages: 2.891%.
C[C@@H]1CN(C2CCOC2)C[C@]12CCN(Cc1cccnc1)C2=O.O=C(O)C(F)(F)F.O=C(O)C(F)(F)F (some centres unmarked) gave Toxoplasma: 25.4%; T. brucei: -6.684%; Leishmania in macrophages: 28.4%.
CCn1c(CNC(=O)c2ccc(N(C)C)nc2)nc2ccccc21 gave LiHisRS: 26.32%; Toxoplasma: 6.483%; ClpP1P2: 4.996%; T. brucei: -1.768%; Leishmania in macrophages: 17.56%.
CSc1[nH]nc(NC(=O)c2cccs2)c1C#N gave LiHisRS: 14.29%; Toxoplasma: 2.964%; ClpP1P2: -8.235%; T. brucei: -30.38%; Leishmania in macrophages: 23.94%.

From ChEMBL document CHEMBL3988442, “University of Dundee, Small-Polar-MMV Screening Library” (2021).